Consider ten compounds from the supplement of paper PMC5393889.

Some of the results follow.

The test system of this assay is Caenorhabditis elegans N2. The assay can be described thus: aldicarb interaction hit call (worm growth perturbed in combination with 10 uM aldicarb in both replicates, no effect as single agent) (binary (1 = interacts)); higher = interacts with aldicarb (growth perturbed). The settings on record: first compound 1.5 µM; aldicarb concentration 10 µM; 6 days; 20 °C.
As to `COc1ccc(/C=N/c2ccc(-c3nc4ccc(C)cc4s3)cc2)cc1` [wact-375] + CNC(=O)O/N=C/C(C)(C)SC [aldicarb], the “aldicarb interaction hit call” value is inactive: 0.

Turning to `c1ccc2c(SCCc3ccncc3)cccc2c1` [wact-19] + CNC(=O)O/N=C/C(C)(C)SC [aldicarb], the “aldicarb interaction hit call” value was inactive: 0.

With `CC(C)Oc1ccc2c(=O)c(Oc3ccccc3)coc2c1` [wact-487] + CNC(=O)O/N=C/C(C)(C)SC [aldicarb], the “aldicarb interaction hit call” value is inactive: 0.

Regarding `CCSc1ncnc2c1cnn2-c1ccccc1` [wact-142] + CNC(=O)O/N=C/C(C)(C)SC [aldicarb], the “aldicarb interaction hit call” value was inactive: 0.

On to `N/C(=N\OC(=O)c1ccc(Cl)cc1)c1cccnc1` [wact-599] + CNC(=O)O/N=C/C(C)(C)SC [aldicarb], for which the “aldicarb interaction hit call” value is inactive: 0.

As to `Cc1cc(C)n2ncc(-c3cccc(Br)c3)c2n1` [wact-488] + CNC(=O)O/N=C/C(C)(C)SC [aldicarb], the “aldicarb interaction hit call” value is inactive: 0.

`O=[N+]([O-])c1ccc(NC(=S)NCc2ccc(Cl)c(Cl)c2)cc1` [wact-109] + CNC(=O)O/N=C/C(C)(C)SC [aldicarb]: the “aldicarb interaction hit call” value was inactive: 0.

As to `Clc1cccc(OCc2nc(-c3ccccc3)no2)c1` [wact-564] + CNC(=O)O/N=C/C(C)(C)SC [aldicarb], the “aldicarb interaction hit call” value was inactive: 0.

As to `O=C(NCCCCc1ccccc1)c1ccccc1F` [wact-400] + CNC(=O)O/N=C/C(C)(C)SC [aldicarb], the “aldicarb interaction hit call” value is inactive: 0.

Turning to `CCC1CCC(N2CCN(c3ccc([N+](=O)[O-])cc3)CC2)CC1` (stereo not given) [wact-6] + CNC(=O)O/N=C/C(C)(C)SC [aldicarb], the “aldicarb interaction hit call” value was inactive: 0.
